This is one part of the list. The main result of the screen is listed elsewhere. These columns were measured beside it and carry no call. Compounds called inactive in the main read-out are mostly missing here. Words in brackets tell the shape of the fitted curve; partial curves, single points and poor fits give uncertain potencies.
Assay: Cell signaling CRE-BLA (Fsk stim)
Settings: CHO CRE-bla reporter (cAMP response element driving beta-lactamase), forskolin EC10, beta-lactamase ratio; measured here: 460 nm blue channel
In short: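 Modulation of forskolin signalling: compounds in titration series added with EC10 NKH 477 to CHO cells carrying a CRE-driven beta-lactamase reporter, 3 h, 37C. CCF4 FRET ratio (460/530 nm, ex 405 nm) gives %activity and AC50.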

**Q.** Which AC50 does the source give for `COc1ccc2c(c1)c1ncnc(N3CCN(Cc4ccc5c(c4)OCO5)CC3)c1n2C` here?
**A.** 5.01 µM [rising, single point]

**Q.** Which AC50 does the source give for `CN(C)c1nc(N)nc(-c2cccnc2)n1` here?
**A.** 12.6 µM [rising, single point]

**Q.** For `CC(C)OCCCNc1ncnc2c1[nH]c1ccccc12`, which AC50 is on record?
**A.** 12.6 µM [falling, single point]

**Q.** For `Nc1nc(CSc2nc3ccccc3s2)nc(N2CCCCC2)n1`, which AC50 is on record?
**A.** 3.98 µM [rising, partial curve]

**Q.** With `Cc1ccc(CNC(=O)CSc2nc(N3CCCCC3)nc(N3CCCCC3)n2)cc1` as the compound, how does the AC50 read?
**A.** 0.0794 µM [falling, full curve, poor fit]

**Q.** For `COc1ccc(-n2nc3c(c2NC(=O)C2CC2)CS(=O)C3)cc1` (centres undefined), which AC50 is on record?
**A.** 3.16 µM [rising, single point]

**Q.** Which AC50 does the source give for `CN(CC(=O)NCCc1ccccc1)S(=O)(=O)c1cccs1` here?
**A.** 0.251 µM [falling, full curve, poor fit]

**Q.** For `COc1ccc(CNc2nc(-c3ccc4c(c3)OCO4)nc3ccccc23)c(OC)c1`, which AC50 is on record?
**A.** 12.6 µM [rising, partial curve]

**Q.** For `COc1ccc(CNC(=O)C2CC(c3ccc(F)cc3)=NO2)cc1` (centres undefined), which AC50 is on record?
**A.** 0.794 µM [falling, full curve, poor fit]

**Q.** Which AC50 does the source give for `CCNc1ncc2nc(-c3ccccc3)c(=O)n(Cc3cccc(OC)c3)c2n1` here?
**A.** 3.16 µM [rising, full curve]

**Q.** Which AC50 does the source give for `CN1/C(=C/C(=O)c2nc(S(C)(=O)=O)ncc2Cl)C(C)(C)c2ccccc21` here?
**A.** 3.16 µM [falling, full curve]

**Q.** For `Nc1ccc(-c2nnc(-c3ccc(-c4ccccc4)cc3)o2)cc1`, which AC50 is on record?
**A.** 3.98 µM [rising, partial curve]

**Q.** For `Cc1cc(C(F)(F)F)c2c(=O)[nH]c(=O)n(Cc3ccccc3)c2n1`, which AC50 is on record?
**A.** 25.1 µM [rising, single point]

**Q.** With `CCOC(=O)C1=C(C)NC(C)=C(C(=O)OCC)C1C(=O)OCC(=O)c1ccc2c(c1)OCCO2` as the compound, how does the AC50 read?
**A.** 3.98 µM [falling, single point]

**Q.** For `COc1ccc(CN2CCCCC2C(=O)Nc2ccc(OC)c(OC)c2)cc1OC` (centres undefined), which AC50 is on record?
**A.** 15.8 µM [rising, partial curve]

**Q.** Which AC50 does the source give for `C=CCn1c(SCc2cc(C(=O)OC)c(C)o2)nnc1-c1ccncc1` here?
**A.** 5.01 µM [rising, partial curve]

**Q.** For `CCc1ccc(NC(=O)c2cc(-c3ccc(OC)cc3)on2)cc1`, which AC50 is on record?
**A.** 0.126 µM [falling, single point]

**Q.** Which AC50 does the source give for `O=C(NCN1C(=O)C2C3C=CC(C3)C2C1=O)Nc1ccccn1` (centres undefined) here?
**A.** 1.58 µM [rising, partial curve]

**Q.** For `O=C(N1CCN(c2ccccn2)CC1)N1c2ccccc2Sc2ccccc21`, which AC50 is on record?
**A.** 10 µM [rising, partial curve]

From PubChem BioAssay AID662 (National Center for Advancing Translational Sciences (NCATS), 2007)
